In paper PMC12686451:
Results are given in words; binding and its absence hold for the method and conditions named. Binding seen in cells or lysates may run through a third protein. Some results given as binding are weak or reduced against the parent protein; the word gives no strength. Sequences can lack the tags named with a protein.

Key:
Assay in all cases: co-IP; GFP-tagged LRR-RP adsorbed on GFP-trap agarose beads, Myc-tagged BAK1 detected by immunoblot; N. benthamiana leaves co-expressing both, treated with water or 1 uM elicitor for 5 min before collecting; membrane proteins extracted in 50 mM Tris-HCl pH 7.4, 150 mM NaCl, 0.25% deoxycholic acid, 1% NP-40, 1 mM EDTA
[1] = target: T1, RLP23, wild type, mEGFP-tagged (Arabidopsis) (UniProt O48849)
T1 sequence: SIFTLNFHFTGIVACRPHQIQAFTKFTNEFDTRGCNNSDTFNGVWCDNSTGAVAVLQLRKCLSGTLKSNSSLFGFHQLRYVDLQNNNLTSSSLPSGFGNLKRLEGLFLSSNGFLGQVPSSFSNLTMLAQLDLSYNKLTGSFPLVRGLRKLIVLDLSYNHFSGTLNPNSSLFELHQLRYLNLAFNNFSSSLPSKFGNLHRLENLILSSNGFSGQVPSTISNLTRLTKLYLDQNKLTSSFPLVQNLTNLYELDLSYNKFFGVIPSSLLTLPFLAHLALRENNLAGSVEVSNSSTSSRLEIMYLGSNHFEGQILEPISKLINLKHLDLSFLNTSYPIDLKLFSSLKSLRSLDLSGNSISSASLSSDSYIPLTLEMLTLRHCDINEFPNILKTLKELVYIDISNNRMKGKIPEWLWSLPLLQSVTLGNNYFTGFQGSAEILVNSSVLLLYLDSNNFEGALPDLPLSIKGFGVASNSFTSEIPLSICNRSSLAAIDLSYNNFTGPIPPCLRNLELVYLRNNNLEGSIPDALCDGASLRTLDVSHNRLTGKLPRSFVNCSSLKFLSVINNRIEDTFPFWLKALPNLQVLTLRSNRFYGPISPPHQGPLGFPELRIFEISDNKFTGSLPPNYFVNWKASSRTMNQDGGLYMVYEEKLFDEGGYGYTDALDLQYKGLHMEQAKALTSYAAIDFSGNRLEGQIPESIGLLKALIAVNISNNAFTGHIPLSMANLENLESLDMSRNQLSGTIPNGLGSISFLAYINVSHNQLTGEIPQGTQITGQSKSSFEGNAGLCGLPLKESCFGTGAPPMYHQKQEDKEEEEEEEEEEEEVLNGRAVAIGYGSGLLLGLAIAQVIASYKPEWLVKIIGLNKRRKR

[2] = target: T2, RLP32, wild type, GFP-tagged (Arabidopsis) (UniProt Q9M9X0)
T2 sequence: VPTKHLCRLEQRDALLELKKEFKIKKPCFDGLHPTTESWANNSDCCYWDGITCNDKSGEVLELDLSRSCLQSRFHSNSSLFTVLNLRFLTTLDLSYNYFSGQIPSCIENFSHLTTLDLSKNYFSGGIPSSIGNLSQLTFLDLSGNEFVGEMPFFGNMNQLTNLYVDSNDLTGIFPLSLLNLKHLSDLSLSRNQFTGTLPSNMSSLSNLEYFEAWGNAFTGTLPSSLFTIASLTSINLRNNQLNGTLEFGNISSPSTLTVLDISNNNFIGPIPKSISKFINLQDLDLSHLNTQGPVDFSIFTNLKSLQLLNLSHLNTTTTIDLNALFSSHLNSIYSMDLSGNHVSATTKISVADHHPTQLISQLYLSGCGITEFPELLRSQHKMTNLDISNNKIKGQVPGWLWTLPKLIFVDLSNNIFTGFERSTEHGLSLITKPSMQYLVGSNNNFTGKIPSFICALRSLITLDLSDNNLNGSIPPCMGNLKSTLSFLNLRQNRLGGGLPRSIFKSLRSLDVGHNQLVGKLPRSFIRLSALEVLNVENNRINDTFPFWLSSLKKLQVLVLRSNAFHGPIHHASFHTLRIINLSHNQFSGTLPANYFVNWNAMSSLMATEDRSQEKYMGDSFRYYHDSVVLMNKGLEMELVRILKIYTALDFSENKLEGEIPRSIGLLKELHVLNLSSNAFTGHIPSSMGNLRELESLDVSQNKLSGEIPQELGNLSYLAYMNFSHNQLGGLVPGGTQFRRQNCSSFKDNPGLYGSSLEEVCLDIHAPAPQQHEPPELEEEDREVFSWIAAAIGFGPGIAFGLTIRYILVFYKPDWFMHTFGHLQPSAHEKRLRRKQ

[3] = target: T3, RLP42, wild type, GFP-tagged (Arabidopsis) (UniProt Q9LJS0)
T3 sequence: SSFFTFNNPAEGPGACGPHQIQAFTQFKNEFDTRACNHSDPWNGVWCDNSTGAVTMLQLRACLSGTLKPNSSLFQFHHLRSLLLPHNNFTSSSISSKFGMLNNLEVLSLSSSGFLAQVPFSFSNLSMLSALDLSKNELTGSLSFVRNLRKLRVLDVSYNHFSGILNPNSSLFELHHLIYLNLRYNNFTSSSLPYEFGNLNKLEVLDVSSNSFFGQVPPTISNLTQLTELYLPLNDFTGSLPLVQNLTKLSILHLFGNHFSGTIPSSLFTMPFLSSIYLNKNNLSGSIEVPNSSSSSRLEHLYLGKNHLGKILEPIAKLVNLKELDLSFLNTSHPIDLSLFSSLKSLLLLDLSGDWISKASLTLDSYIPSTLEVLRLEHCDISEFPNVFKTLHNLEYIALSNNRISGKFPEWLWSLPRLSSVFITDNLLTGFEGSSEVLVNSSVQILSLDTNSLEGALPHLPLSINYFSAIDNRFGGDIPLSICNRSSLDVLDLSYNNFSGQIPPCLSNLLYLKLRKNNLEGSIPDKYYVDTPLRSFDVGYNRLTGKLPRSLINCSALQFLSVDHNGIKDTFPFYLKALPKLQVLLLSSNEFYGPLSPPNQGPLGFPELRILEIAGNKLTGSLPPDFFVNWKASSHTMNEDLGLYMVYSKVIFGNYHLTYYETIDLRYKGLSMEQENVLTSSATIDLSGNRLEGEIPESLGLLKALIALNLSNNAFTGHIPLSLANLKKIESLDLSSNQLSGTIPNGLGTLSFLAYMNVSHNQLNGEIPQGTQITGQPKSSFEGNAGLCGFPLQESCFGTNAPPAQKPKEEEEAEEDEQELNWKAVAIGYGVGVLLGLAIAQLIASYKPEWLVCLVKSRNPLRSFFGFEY

Measured: binding

B1: BRASSINOSTEROID … 1-ASSOCIATED KINASE 1/SOMATIC EMBRYOGENESIS RECEPTOR KINASE 3, Myc-tagged (receptor, UniProt Q94F62 26-615)
chain: NAEGDALSALKNSLADPNKVLQSWDATLVTPCTWFHVTCNSDNSVTRVDLGNANLSGQLVMQLGQLPNLQYLELYSNNITGTIPEQLGNLTELVSLDLYLNNLSGPIPSTLGRLKKLRFLRLNNNSLSGEIPRSLTAVLTLQVLDLSNNPLTGDIPVNGSFSLFTPISFANTKLTPLPASPPPPISPTPPSPAGSNRITGAIAGGVAAGAALLFAVPAIALAWWRRKKPQDHFFDVPAEEDPEVHLGQLKRFSLRELQVASDNFSNKNILGRGGFGKVYKGRLADGTLVAVKRLKEERTQGGELQFQTEVEMISMAVHRNLLRLRGFCMTPTERLLVYPYMANGSVASCLRERPESQPPLDWPKRQRIALGSARGLAYLHDHCDPKIIHRDVKAANILLDEEFEAVVGDFGLAKLMDYKDTHVTTAVRGTIGHIAPEYLSTGKSSEKTDVFGYGVMLLELITGQRAFDLARLANDDDVMLLDWVKGLLKEKKLEALVDVDLQGNYKDEEVEQLIQVALLCTQSSPMERPKMSEVVRMLEGDGLAERWEEWQKEEMFRQDFNYPTHHPAVSGWIIGDSTSQIENEYPSGPR
binds: all assays above
